The other results are listed elsewhere or left out. Values are raw readings; no control value is given beside them.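 In the initial screen, polymyxin B was used at a concentration that permeabilizes Salmonella's outer membrane but not its inner membrane. Maximum growth was set by DMSO wells with or without polymyxin B. Since plates varied, data were ranked per plate, and compounds giving the lowest OD600 advanced as hits.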
Test system: Salmonella enterica serovar Typhimurium SL1344
Assay: bacterial growth OD600 after 18 h with compound and polymyxin B; higher = more bacterial growth (less inhibition)
Details: 50 µM, Mueller-Hinton broth

Row | Compound | bacterial growth OD600 (polymyxin B 1 µg/mL) | bacterial growth OD600 (polymyxin B 0.75 µg/mL)
1 | COc1ccc(CC(=O)NC2CCCN(CCCc3ccccc3)C2)cc1OC (stereo unspecified) | 1.18 | 
2 | Cc1c(CC(=O)N(C)Cc2ccncn2)c2c(n1Cc1ccccc1)CCCC2=O |  | 0.833
3 | CN(CC1COCCO1)C(=O)CC1c2ccccc2CCc2ccccc21 (stereo unspecified) |  | 0.683
4 | O=C(Nc1ccnn1C1CCN(C(=O)c2ccccn2)CC1)c1ccc2c(c1)OCO2 | 0.946 | 
5 | COc1cccc(CNC(=O)CCC2(Cc3ccc(-c4ccccc4)cc3)CCC(=O)N2)c1OC (stereo unspecified) |  | 0.38
6 | Cc1ccccc1-c1cnnc(NCCc2nc(C)c3c(n2)CCCC3)n1 | 0.997 | 
7 | CC(C)c1nc(C(=O)N2CCc3onc(-c4ccccc4F)c3C2)cs1 |  | 0.002
8 | CSc1ncc(CN2CCc3c([nH]c4ccccc34)C2c2cccc(O)c2)cn1 (stereo unspecified) | 0.003 | 
9 | COc1ccccc1Oc1ncccc1CNC(=O)c1cscn1 |  | 0.783
10 | COc1ccc(-c2nn(-c3ccccc3C)cc2CN(C)CCN2CCOCC2)cc1F | 0.823 | 
11 | CSCCCNC(=O)c1cn(CC(C)C)cc(C(=O)N2CCCCCC2)c1=O |  | 1
12 | COc1cc2nc(-c3cc4c(c(OC)c3)OCCN(C(=O)c3ccccc3F)C4)cc(C)c2cc1OC |  | 0.845
13 | CC(C)c1c(C(=O)NCC2(N3CCOCC3)CCCC2)cnn1-c1nccc(-c2ccccc2F)n1 |  | 0.84
14 | CC(CCc1ccc(O)cc1)N1CCC(N2CCC(C(=O)NC3CC3)CC2)CC1 (stereo unspecified) | 1.04 | 
15 | COc1cccc(CC(C2CCN(Cc3cccc(OC)c3O)CC2)N(C)C(=O)c2ccco2)c1 (stereo unspecified) |  | 0.97
16 | O=C(NCc1ccco1)N1CCc2onc(-c3ccc4c(c3)OCO4)c2C1 |  | 0.882

Row | Compound | bacterial growth OD600 (polymyxin B 1 µg/mL) | bacterial growth OD600 (polymyxin B 0.75 µg/mL)
17 | COc1ccc(Cl)cc1NC(=O)CCC1CCCN(C(=O)CCc2scnc2C)C1 (stereo unspecified) | 1.07 | 
18 | CCOC(=O)CC1COCCN1C(=O)c1cc(COc2ccccc2SC)on1 (stereo unspecified) | 0.907 | 
19 | O=C(Nc1ccc(Oc2cccnc2)cc1)C1CCN(Cc2cccc(Cl)c2)CC1 | 0.006 | 
20 | CCN(CC1CCN(C2CCN(C)CC2)CC1)C(=O)/C=C/c1ccc(OC)c(OC)c1 | 0.989 | 
21 | C#Cc1ccc(CN2CCN(Cc3ccc(OC)c(C)c3)C(CCO)C2)cc1 (stereo unspecified) | 0.937 | 
22 | CCn1c(-c2cccnc2)nc2cc(NC(=O)COC)cc(C(=O)NCc3cc(F)ccc3C)c21 |  | 0.841
23 | COc1cccc(OCc2nc(C(=O)NCc3ccc(F)cc3)co2)c1 | 0.799 | 
24 | C=CCOc1ccccc1CN1CCC(C2(CCc3ccccc3)NC(=O)N(CC#CC)C2=O)CC1 (stereo unspecified) |  | 0.782
25 | Cc1ncc2c(c1CNC(=O)/C=C/c1cccs1)CCN(C(=O)Cc1ccc(F)c(F)c1)C2 |  | 0.663
26 | COCC1CCCCN1C(=O)c1cc(COc2ccc3c(c2)OCO3)[nH]n1 (stereo unspecified) | 0.936 | 
27 | CN(CC1CCCCO1)C(=O)c1coc(COc2ccc(F)cc2Cl)n1 (stereo unspecified) | 0.91 | 
28 | CCc1csc(CNC(=O)c2ccc(N3CCC(N(C)C)C3)nc2)n1 (stereo unspecified) |  | 0.832
29 | CC(C)CCn1c(CN2CCN(C3CCCC3)CC2)cnc1S(=O)(=O)C(C)C | 0.994 | 
30 | O=C1N(Cc2cccc(F)c2F)CCCC1(O)CNCc1ccc(F)cc1 (stereo unspecified) | 1.01 | 
31 | Cc1cc(CN(C)C(=O)CC(c2ccccc2)c2ccccc2Cl)n[nH]1 (stereo unspecified) | 0.666 | 

Looked up one by one from the list above (2):
Row | Compound | bacterial growth OD600 (polymyxin B 1 µg/mL) | bacterial growth OD600 (polymyxin B 0.75 µg/mL)
9 | COc1ccccc1Oc1ncccc1CNC(=O)c1cscn1 |  | 0.783
13 | CC(C)c1c(C(=O)NCC2(N3CCOCC3)CCCC2)cnn1-c1nccc(-c2ccccc2F)n1 |  | 0.84

Reference: the supplement of paper PMC12889115
